# In patent US20230287096A1:
# These are yes or no findings as the source states them, for the method shown. Some entries that bind do so weakly or less than the wild type.
# T1: FAM19A5 epitope fragment F5, conjugated to BSA (human)
# T1 sequence (peptide, conjugated to BSA): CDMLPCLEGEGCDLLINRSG
# Target: T1, FAM19A5 epitope fragment F5, conjugated to BSA (human)
# Test: ELISA, BSA-conjugated peptide coated on plate
binder,measurement,value
"Anti-FAM19A5 antibody 1-65 (antibody, V domains shown) VH: AVTLDESGGGLQTPGGALSLVCKASGFTFSSYQMGWVRQAPGKGLEWVGVINKSGSDTSYGSAVKGRATISRDNGQSTVRLQLNNLRAEDTGTYFCAKGSASYITAATIDAWGHGTEVIVSS VL: ALTQPSSVSANPGETVKITCSGGGSSGYGYGWYQQKSPSSAPLTVIYWNDKRPSDIPSRFSGSKSGSTHTLTITGVQAEDEAVYFCGNDDYSSDSGYVGVFGAGTTLTVL",binding,binds
